Results on 1 substance are retold here after PMC6146035.

Sequences of proteins named here, by UniProt entry; tags and fusion partners are left off.
UniProt P19139: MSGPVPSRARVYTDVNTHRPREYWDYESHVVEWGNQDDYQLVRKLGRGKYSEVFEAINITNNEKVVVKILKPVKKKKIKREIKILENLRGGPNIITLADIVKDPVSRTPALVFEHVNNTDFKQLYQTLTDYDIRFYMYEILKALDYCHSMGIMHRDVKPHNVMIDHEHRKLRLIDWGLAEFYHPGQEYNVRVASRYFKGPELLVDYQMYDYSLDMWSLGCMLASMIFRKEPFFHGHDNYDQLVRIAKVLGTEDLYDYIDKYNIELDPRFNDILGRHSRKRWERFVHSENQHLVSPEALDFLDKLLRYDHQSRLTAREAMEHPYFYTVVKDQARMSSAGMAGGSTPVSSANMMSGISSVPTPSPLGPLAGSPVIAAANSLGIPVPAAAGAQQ
UniProt P10361: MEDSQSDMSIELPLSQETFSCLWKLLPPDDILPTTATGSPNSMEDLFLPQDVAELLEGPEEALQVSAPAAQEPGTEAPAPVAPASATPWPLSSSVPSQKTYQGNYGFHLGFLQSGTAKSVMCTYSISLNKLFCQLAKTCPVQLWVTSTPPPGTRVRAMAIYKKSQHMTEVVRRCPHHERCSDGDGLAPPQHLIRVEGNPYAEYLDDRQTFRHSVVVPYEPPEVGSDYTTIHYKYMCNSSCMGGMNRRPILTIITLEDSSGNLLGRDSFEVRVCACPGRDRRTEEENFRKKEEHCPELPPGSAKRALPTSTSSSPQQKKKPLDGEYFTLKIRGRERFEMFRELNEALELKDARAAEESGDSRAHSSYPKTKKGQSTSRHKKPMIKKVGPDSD

Results are given in words; binding and its absence hold for the method and conditions named. Binding seen in cells or lysates may run through a third protein. Some entries that bind do so weakly or less than the wild type.

For this test, the target named is Casein kinase 2 catalytic subunit alpha (CK2α) (rat (endogenous in cultured rat oligodendrocytes)) (UniProt P19139). Description: co-IP; lysates (RIPA buffer) of cultured rat oligodendrocytes, untreated control or treated with 10 uM AMPA plus 100 uM CTZ for 30 min and collected 10, 30 and 60 min later; pre-cleared with Sepharose 6B; IP overnight at 4°C with rabbit anti-CK2α on Protein A-Sepharose; blot with mouse anti-p53; band quantified as % of control.

With “tumor suppressor p53 (from UniProt P10361 1-391)”, the binding entry was “binds”.
